Laboratory results as given in patent publication US8158587B2, “Compound having histone deacetylase-inhibiting activity, and pharmaceutical composition comprising the compound as an active ingredient” (Kyushu Institute of Technology, priority 2006, dated 2012).
For some of these results: Not every detail of the peptide structures is certain; ends, links or a residue may be inferred. For some of these results: For at least one compound, name, drawing or mass did not settle the structure.

Amino acid sequences for entries named in this document (tags omitted). A change or cut given only in a name is not applied to a line headed by its entry.
UniProt P56524: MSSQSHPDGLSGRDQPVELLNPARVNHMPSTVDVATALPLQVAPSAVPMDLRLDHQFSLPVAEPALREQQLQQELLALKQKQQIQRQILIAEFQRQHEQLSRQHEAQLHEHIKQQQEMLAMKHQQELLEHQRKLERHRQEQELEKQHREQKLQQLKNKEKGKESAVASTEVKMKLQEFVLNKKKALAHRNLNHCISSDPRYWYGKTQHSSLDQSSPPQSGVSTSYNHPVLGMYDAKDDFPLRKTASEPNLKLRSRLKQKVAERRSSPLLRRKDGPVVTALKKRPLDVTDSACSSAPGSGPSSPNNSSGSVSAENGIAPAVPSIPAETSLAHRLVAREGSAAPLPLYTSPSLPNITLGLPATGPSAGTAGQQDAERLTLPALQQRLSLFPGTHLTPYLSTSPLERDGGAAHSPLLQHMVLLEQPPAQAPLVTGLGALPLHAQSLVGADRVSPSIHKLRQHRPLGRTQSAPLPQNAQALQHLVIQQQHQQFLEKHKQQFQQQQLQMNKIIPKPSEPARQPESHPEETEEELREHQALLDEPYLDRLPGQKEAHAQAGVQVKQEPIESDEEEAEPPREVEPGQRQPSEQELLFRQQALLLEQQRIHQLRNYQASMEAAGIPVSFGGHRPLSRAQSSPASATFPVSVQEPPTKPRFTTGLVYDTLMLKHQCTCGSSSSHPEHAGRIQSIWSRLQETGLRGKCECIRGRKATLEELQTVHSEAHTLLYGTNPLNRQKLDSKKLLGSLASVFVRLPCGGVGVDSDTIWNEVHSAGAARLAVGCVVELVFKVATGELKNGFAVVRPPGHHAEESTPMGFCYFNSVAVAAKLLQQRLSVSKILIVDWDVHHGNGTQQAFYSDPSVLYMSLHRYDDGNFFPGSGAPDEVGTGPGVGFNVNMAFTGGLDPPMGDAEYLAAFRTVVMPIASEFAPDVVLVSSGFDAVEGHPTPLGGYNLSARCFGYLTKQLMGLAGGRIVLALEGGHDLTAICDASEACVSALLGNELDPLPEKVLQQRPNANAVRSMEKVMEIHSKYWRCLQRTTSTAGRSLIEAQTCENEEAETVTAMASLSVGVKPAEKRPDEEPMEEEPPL
UniProt Q13547, whole entry: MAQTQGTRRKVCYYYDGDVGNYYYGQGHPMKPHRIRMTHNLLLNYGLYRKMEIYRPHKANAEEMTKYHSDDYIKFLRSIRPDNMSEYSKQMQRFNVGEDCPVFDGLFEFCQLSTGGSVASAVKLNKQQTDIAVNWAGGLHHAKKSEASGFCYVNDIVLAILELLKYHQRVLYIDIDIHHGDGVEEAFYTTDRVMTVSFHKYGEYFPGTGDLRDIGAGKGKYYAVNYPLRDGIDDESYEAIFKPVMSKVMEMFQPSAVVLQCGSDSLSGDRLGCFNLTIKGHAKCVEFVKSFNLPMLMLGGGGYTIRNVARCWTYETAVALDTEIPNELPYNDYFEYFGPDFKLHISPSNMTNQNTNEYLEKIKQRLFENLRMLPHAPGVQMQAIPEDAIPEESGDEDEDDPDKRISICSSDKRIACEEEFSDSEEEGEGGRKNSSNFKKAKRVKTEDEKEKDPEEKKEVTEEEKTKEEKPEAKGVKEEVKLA

Legend:
[1] = test system: human wild type p21 promoter; assay: p21 promoter assay (luciferase) in MFLL-9 cells; format: cell-based; settings: 20 hours, concentration giving 1000% luminescence relative to negative control (100%)
Description: As an HDAC-inhibiting activity in an […] system, the following measurement was carried out using the p21 promoter inducing activity as an index. MFLL-9 cells used in the experiment are cells stably retaining a fusion gene (Dr. B. Vogelstaein) from the human wild type p21 promoter and luciferase gene. They were cultured using phenol red-free DMEM supplemented with 10% FBS in a steam-saturated incubator at 37° C. in the presence of 5% carbon dioxide. These MFLL-9 cells were sowed onto a 96-well microplate at a cell density of 2×10^4 cells/well and, after 24 hours of cultivation in 99 μl, per well, of the medium mentioned above, each test compound solution was added, followed by 20 hours of incubation. […] In a negative control, the same procedure was carried out without adding any inhibitor to the reaction system.
Using Luciferase Assay Reagent (Promega), the intensity of the luminescence due to the product of the enzymatic reaction involving luciferase expressed within cells was measured.

[2] = target: T1, human HDAC4 (Homo sapiens, UniProt P56524); assay: HDAC-inhibiting activity, coumarin-labeled acetylated histone peptide assay; format: biochemical; settings: human HDAC4 from transfected 293T cells; 37° C., 30 minutes
T1 construct: made in house; host or cells: 293T cells (transient transfection, anti-FLAG immunoprecipitation, FLAG peptide elution)
Description: In carrying out HDAC-inhibiting activity measurements, HDAC solutions were prepared in the following manner. […] The human HDAC1 expression vector used was pcDNA3-HD1 (Yang, W. M., Yao, Y. L., Sun, […]. & Seto, E. (1997) J. Biol. Chem. 272, 28001-28007), the human HDAC4 expression vector used was pcDNA3-HD4 ([…]., Nagase, […]. Biol. Chem. 274, 11713-11720), and the murine HDAC6 expression vector used was pcDNA3-mHDA2/HDAC6 ([…]. Biol. Chem. 274, 2440-2445). After 24 hours of incubation, cells were recovered, washed with PBS, suspended in lysis buffer (50 mM Tris-HCl (pH 7.5), 120 mM NaCl, 5 mM EDTA, 0.5% Nonidet P-40), and sonicated. The supernatant was collected by centrifugation and then deprived of nonspecific proteins using Protein A/G plus agarose beads (Santa Cruz Biotechnologies, Inc.). Thereafter, anti-FLAG M2 antibody (Sigma-Aldrich Inc.) was added, and the reaction was allowed to proceed at 4° C. for 2 hours. To this were added agarose beads, the reaction was allowed to proceed at 4° C. for 3 hours, and the agarose beads were washed three times with lysis buffer and then once with HD buffer (20 mM Tris-HCl (pH 8.0), 150 mM NaCl, 10% glycerol). […] To the reaction mixture was added 30 μl of trypsin, and the aminomethylcoumarin released by the enzymatic reaction was assayed using a fluorescent plate reader. […]

[3] = target: T2, murine HDAC6 (Mus musculus, UniProt Q9Z2V5); assay: as above; format: biochemical; settings: murine HDAC6 from transfected 293T cells; 37° C., 30 minutes
T2 construct: made in house; host or cells: 293T cells (transient transfection, anti-FLAG immunoprecipitation, FLAG peptide elution)
T2 sequence (Q9Z2V5 1-1149): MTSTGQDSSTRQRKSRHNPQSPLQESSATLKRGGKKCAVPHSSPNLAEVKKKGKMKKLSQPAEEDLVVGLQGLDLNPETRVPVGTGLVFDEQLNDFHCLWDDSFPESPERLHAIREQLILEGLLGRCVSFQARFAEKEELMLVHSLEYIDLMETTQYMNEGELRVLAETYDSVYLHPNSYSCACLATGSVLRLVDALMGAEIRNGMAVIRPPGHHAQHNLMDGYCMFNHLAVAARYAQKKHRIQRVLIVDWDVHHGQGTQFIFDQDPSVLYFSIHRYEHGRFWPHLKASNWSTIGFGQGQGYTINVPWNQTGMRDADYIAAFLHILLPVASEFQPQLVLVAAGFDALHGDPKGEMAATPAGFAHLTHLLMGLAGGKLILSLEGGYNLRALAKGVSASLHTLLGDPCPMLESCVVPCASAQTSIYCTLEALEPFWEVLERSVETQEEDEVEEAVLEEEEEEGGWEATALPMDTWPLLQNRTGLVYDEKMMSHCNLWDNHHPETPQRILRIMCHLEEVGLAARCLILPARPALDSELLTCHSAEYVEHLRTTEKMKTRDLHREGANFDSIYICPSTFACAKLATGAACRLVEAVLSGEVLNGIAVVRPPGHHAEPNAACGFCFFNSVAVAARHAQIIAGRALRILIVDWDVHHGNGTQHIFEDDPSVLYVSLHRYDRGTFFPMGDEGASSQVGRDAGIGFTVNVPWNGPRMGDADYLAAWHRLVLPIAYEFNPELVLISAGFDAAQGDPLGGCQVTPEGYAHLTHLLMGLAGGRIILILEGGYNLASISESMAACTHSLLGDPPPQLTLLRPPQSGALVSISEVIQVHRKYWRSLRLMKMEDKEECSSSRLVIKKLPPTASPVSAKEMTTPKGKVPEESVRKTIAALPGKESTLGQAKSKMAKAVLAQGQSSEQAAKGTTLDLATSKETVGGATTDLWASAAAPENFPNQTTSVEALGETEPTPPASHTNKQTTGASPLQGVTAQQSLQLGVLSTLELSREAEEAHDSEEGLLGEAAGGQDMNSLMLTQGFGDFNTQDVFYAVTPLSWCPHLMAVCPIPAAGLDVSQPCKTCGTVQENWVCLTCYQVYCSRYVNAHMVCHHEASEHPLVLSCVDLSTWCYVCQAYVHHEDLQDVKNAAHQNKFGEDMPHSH
Description: (§1) In carrying out HDAC-inhibiting activity measurements, HDAC solutions were prepared in the following manner. In each 100-mm dish, there were sowed 1×10^7 293T cells and, after 24 hours, they were transfected with a vector (5 μg) expressing human HDAC1 or HDAC4 or murine HDAC6 using the LipofectAmine 2000 reagent (Invitrogen). The human HDAC1 expression vector used was pcDNA3-HD1 (Yang, W. M., Yao, Y. L., Sun, J. M., Davie, J. R. & Seto, E. (1997) J. Biol. Chem. 272, 28001-28007), the human HDAC4 expression vector used was pcDNA3-HD4 (Fischle, W., Emiliani, S., Hendzel, M. J., Nagase, T., Nomura, N., Voelter, W. & Verdin, E. (1999) J. Biol. Chem. 274, 11713-11720), and the murine HDAC6 expression vector used was pcDNA3-mHDA2/HDAC6 (Verdel, A. & Khochbin, S. (1999) J. Biol. Chem. 274, 2440-2445).
(§2) After 24 hours of incubation, cells were recovered, washed with PBS, suspended in lysis buffer (50 mM Tris-HCl (pH 7.5), 120 mM NaCl, 5 mM EDTA, 0.5% Nonidet P-40), and sonicated. The supernatant was collected by centrifugation and then deprived of nonspecific proteins using Protein A/G plus agarose beads (Santa Cruz Biotechnologies, Inc.). Thereafter, anti-FLAG M2 antibody (Sigma-Aldrich Inc.) was added, and the reaction was allowed to proceed at 4° C. for 2 hours.
(§3) To this were added agarose beads, the reaction was allowed to proceed at 4° C. for 3 hours, and the agarose beads were washed three times with lysis buffer and then once with HD buffer (20 mM Tris-HCl (pH 8.0), 150 mM NaCl, 10% glycerol). The protein bound to the agarose beads was recovered by 1 hour of incubation with FLAG peptide (40 μg) (Sigma-Aldrich Inc.) in HD buffer (200 μl) at 4° C., and the liquid recovered was used, as a reactant solution, in the HDAC-inhibiting activity measurement described below.
(§4) HDAC-inhibiting activity evaluation in each in vitro system was made as follows. Each test compound was dissolved in DMSO, a stock solution with a concentration of 10 mM was thus prepared and this was used as an inhibitor stock solution. The assay was carried out by incubating the HDAC solution and a coumarin-labeled acetylated histone peptide solution in the presence of the test compound at 37° C. for 30 minutes (reaction volume 20 μl). To the reaction mixture was added 30 μl of trypsin, and the aminomethylcoumarin released by the enzymatic reaction was assayed using a fluorescent plate reader. In a negative control assay, no inhibitor was added to the reaction system and the same procedure was carried out.

[4] = target: T3, human HDAC1 (Homo sapiens, UniProt Q13547); assay: as above; format: biochemical; settings: human HDAC1 from transfected 293T cells; 37° C., 30 minutes
T3 construct: made in house; host or cells: 293T cells (transient transfection, anti-FLAG immunoprecipitation, FLAG peptide elution)
Description: as §1, §2, §3, §4

SMILES | p21 promoter activity EC1000 [1] | IC50 [2] | IC50 [3] | IC50 [4]
CSCCCCC[C@@H]1NC(=O)[C@H]2CCCN2C(=O)[C@H](Cc2ccccc2)NC(=O)C(C)(C)NC1=O [Ky-15, cyclo(-L-Am7(methyl)-Aib-L-Phe-D-Pro-)] | >250 µM | – | – | –
CC1(C)NC(=O)C(CCCCC[S+]([O-])Cc2ccccn2)NC(=O)[C@H]2CCCN2C(=O)[C@H](Cc2ccccc2)NC1=O (stereo partly drawn) [Ky-25, cyclo(-L-Am7(2-pyridylmethyl,sulfoxide)-Aib-L-Phe-D-Pro-)] | – | 25.1 µM | > 100 µM | 40.3 µM
CC(=O)C[S+]([O-])CCCCCC1NC(=O)[C@H]2CCCN2C(=O)[C@H](Cc2ccccc2)NC(=O)C(C)(C)NC1=O (stereo partly drawn) [Ky-86, cyclo(-L-Am7(acetonyl,sulfoxide)-Aib-L-Phe-D-Pro-)] | – | 12.8 µM | > 100 µM | 22.2 µM
